Results are given in words; binding and its absence hold for the method and conditions named. Binding seen in cells or lysates may run through a third protein. Some entries that bind do so weakly or less than the wild type.
How the values were obtained:
[1] = target: Amyloid Precursor Protein (APP) (mouse (endogenous in primary cortical neurons)) (UniProt P12023); test: co-IP; after cell surface biotinylation of mouse primary cortical neurons at 6 DIV (Cell surface Co-IP); APP precipitated with anti-APP Cter polyclonal antibody; blots for APP and PAT1
[2] = target: Amyloid Precursor Protein (APP) (mouse (endogenous in primary cortical neurons)) (UniProt P12023); test: co-IP; total extracts of mouse primary cortical neurons at 6 DIV; APP precipitated with anti-APP Cter polyclonal antibody and protein A Sepharose; IP buffer Hepes 10 mM, NaCl 150 mM, CaCl2 2 mM, 1% Triton X 100, 4°C; blots for APP and PAT1

Protein sequences, listed by entry. Tags and fused reporters are not part of them. Residues count along the entry.
UniProt P12023, residues 18-770: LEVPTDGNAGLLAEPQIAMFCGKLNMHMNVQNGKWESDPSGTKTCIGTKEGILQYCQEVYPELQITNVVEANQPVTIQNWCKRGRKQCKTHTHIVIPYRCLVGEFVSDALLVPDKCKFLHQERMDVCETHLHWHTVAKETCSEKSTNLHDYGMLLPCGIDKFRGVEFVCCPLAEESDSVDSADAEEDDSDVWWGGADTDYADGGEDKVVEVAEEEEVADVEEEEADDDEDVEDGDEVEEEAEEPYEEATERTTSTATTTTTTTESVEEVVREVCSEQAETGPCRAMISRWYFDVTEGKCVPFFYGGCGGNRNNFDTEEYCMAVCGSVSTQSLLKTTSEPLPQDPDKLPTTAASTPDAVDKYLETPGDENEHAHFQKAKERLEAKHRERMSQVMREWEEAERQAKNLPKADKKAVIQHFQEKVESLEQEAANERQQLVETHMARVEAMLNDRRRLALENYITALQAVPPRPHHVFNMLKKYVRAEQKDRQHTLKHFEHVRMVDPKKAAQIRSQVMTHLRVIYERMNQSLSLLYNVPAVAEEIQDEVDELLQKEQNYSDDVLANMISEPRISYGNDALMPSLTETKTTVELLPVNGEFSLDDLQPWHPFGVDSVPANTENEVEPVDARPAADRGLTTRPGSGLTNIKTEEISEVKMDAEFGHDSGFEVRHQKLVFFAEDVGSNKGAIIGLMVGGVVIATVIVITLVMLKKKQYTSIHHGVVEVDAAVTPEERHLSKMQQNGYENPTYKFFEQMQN

binding [1]: binds weakly | binding [2]: binds
B1: PAT1 (Protein interacting with APP tail 1) (protein, UniProt Q9DAX9 1-585)
chain: MAAVELEWIPETLYNTAISAVVDNYIRSRRDIRSLPENIQFDVYYKLYQQGRLCQLGSEFCELEVFAKVLRALDKRHLLHHCFQALMDHGVKVASVLAYSFSRRCSYIAESDAAVKEKAIQVGFVLGGFLSDAGWYSDAEKVFLSCLQLCTLHDEMLHWFRAVECCVRLLHVRNGNCKYHLGEETFKLAQTYMDKLSKHGQQANRAALYGELCALLFAKSHYDEAYKWCVEAMKEITAGLPVKVVVDVLRQASKACVVKREFKKAEQLIKHAVYLARDHFGSKHPKYSDTLLDYGFYLLNVDNICQSVAIYQAALDIRQSVFGGKNIHVATAHEDLAYSSYVHQYSSGKFDNALFHAERAIGIITHILPEDHLLLASSKRVKALILEEIAIDCHNKETEQRLLQEAHDLHLSSLQLAKKAFGEFNVQTAKHYGNLGRLYQSMRKFKEAEEMHIKAIQIKEQLLGQEDYEVALSVGHLASLYNYDMNQYENAEKLYLRSIAIGKKLFGEGYSGLEYDYRGLIKLYNSIGNYEKVFEYHNVLSNWNRLRDRQYSVTDALEDVSSSPQSTEEVVQSFLMAQNVEGPSC

Source: publication PMC4355975
